Source: paper PMC5316414
No constants are given. Whether binding was seen depends on the method and setting. In cells and extracts the contact can be indirect. Some entries that bind do so weakly or less than the wild type. For some assays here: Sequences can lack the tags named with a protein.

Sequences of proteins named here, by UniProt entry; tags and fusion partners are left off. A change or cut given only in a name is not applied to a line headed by its entry.
UniProt P53538: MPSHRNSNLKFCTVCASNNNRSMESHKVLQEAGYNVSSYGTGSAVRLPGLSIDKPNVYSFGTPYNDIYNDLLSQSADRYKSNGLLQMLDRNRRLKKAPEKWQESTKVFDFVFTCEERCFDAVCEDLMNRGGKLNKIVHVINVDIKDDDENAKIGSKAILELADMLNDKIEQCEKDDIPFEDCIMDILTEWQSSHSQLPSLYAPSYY
UniProt P39081: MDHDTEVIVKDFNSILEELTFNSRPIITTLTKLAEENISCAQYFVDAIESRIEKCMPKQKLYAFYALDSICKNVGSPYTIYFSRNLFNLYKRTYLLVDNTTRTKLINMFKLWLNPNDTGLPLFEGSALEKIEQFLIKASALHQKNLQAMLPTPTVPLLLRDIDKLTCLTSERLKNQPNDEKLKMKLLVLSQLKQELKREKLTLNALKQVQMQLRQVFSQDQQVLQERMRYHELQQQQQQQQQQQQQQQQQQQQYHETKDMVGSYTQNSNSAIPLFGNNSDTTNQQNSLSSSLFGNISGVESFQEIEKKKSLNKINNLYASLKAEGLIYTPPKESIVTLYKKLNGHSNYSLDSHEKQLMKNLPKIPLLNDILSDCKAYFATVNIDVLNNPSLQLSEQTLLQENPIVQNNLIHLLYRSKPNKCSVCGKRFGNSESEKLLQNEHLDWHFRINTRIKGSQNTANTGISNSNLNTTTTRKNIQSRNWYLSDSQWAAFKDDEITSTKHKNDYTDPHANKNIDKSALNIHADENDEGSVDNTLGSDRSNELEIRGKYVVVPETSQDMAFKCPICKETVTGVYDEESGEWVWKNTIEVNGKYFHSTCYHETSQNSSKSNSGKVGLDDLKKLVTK
UniProt P04050: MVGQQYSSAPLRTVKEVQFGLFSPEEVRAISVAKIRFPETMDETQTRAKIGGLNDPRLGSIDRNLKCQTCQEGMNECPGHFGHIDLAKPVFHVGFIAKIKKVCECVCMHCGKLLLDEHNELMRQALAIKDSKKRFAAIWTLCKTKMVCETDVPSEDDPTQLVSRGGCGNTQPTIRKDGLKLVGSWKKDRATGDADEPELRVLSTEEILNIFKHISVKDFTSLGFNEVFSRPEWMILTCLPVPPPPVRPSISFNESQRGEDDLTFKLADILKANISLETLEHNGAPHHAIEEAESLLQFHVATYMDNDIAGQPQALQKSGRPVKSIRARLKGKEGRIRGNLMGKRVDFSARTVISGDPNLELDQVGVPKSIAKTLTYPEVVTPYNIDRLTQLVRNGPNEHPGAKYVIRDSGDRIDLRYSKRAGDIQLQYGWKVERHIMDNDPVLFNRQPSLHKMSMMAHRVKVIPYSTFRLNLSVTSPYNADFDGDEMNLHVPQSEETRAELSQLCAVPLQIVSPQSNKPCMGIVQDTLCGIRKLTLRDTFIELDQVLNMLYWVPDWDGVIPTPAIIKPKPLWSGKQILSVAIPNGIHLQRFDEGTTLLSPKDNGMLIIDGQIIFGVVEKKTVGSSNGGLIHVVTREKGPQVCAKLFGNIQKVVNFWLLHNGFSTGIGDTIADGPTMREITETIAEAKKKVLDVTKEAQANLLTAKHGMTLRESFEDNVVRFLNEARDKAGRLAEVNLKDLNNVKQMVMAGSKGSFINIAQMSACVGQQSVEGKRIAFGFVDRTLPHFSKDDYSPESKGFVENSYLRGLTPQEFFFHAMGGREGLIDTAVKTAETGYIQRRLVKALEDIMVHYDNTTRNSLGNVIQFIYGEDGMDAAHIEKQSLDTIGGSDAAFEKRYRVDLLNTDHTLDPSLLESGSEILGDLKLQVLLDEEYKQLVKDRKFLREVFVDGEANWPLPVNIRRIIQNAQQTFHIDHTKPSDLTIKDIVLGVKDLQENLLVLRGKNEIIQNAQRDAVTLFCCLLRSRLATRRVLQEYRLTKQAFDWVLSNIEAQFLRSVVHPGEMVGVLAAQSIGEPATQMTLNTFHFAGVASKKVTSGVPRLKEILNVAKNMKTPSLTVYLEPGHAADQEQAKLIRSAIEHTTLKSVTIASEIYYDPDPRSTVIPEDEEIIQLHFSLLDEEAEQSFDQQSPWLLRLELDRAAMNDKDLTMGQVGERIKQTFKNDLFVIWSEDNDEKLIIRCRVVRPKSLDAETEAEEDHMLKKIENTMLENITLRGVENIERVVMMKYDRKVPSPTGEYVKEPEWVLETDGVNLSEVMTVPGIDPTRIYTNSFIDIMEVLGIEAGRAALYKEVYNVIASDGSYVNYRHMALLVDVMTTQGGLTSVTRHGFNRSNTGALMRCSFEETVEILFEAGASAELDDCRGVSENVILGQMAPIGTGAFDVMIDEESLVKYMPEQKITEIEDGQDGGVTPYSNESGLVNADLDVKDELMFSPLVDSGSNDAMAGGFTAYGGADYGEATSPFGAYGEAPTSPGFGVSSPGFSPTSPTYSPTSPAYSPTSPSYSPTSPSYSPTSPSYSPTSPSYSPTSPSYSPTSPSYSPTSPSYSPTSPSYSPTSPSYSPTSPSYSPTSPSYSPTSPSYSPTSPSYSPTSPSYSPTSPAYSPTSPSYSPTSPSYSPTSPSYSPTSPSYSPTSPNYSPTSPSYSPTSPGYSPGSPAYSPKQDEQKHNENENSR

Experiments:
Experiment in all cases: co-IP; single IP (TEF-seq): anti-FLAG M2 agarose beads, 4°C, 2.5 h, from cryogenically lysed, DNase I-treated yeast extract in 20 mM HEPES pH 7.4, 110 mM KOAc, 0.5% Triton X-100, 0.1% Tween 20, 10 mM MnCl2; eluted with 3xFLAG peptide; co-precipitated Pol2 read by sequencing its nascent RNA, no-tag control subtracted; samples also analysed by western blot; cells in glucose, for Paf1 also 5, 15 or 60 min in galactose
[1] = target: T1, FLAG-tagged Cet1 (S. cerevisiae) (UniProt O13297)
T1 sequence: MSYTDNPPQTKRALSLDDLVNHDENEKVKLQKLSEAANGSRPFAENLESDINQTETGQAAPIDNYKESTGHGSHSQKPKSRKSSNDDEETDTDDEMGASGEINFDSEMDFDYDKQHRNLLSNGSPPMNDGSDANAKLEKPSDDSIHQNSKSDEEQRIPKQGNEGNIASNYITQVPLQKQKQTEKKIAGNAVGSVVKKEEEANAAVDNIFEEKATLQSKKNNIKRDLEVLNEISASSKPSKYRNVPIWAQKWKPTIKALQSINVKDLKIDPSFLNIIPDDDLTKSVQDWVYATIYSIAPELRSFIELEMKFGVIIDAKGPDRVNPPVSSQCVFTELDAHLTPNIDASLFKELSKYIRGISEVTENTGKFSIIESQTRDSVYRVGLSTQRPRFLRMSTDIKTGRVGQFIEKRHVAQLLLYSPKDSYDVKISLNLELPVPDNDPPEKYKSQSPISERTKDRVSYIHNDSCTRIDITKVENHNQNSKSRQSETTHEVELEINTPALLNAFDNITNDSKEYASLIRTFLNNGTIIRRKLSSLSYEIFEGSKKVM

[2] = target: T2, FLAG-tagged Set2 (S. cerevisiae) (UniProt P46995)
T2 sequence: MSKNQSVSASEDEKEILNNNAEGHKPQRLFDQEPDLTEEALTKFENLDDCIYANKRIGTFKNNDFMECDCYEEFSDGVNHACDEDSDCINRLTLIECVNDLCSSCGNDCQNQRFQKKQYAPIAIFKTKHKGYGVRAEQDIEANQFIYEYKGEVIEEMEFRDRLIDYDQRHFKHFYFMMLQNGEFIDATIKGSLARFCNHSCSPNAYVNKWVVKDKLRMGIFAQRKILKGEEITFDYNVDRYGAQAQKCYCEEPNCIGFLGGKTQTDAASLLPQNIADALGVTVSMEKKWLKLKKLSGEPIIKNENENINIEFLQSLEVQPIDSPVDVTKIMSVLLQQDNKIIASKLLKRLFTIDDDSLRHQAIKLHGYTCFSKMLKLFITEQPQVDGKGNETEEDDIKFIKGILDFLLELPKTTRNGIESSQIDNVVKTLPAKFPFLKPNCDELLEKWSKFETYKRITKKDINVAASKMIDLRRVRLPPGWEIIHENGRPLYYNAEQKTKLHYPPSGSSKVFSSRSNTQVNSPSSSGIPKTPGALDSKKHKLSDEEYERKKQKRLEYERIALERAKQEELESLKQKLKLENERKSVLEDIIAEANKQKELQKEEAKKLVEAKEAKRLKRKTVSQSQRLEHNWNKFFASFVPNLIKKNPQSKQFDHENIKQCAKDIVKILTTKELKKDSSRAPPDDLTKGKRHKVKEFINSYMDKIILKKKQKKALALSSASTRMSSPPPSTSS

[3] = target: FLAG-tagged Ssu72 (S. cerevisiae) (UniProt P53538)
[4] = target: FLAG-tagged Pcf11 (S. cerevisiae) (UniProt P39081)
[5] = target: T3, FLAG-tagged Paf1 (RNA polymerase II-associated factor 1) (S. cerevisiae) (UniProt P38351)
T3 sequence: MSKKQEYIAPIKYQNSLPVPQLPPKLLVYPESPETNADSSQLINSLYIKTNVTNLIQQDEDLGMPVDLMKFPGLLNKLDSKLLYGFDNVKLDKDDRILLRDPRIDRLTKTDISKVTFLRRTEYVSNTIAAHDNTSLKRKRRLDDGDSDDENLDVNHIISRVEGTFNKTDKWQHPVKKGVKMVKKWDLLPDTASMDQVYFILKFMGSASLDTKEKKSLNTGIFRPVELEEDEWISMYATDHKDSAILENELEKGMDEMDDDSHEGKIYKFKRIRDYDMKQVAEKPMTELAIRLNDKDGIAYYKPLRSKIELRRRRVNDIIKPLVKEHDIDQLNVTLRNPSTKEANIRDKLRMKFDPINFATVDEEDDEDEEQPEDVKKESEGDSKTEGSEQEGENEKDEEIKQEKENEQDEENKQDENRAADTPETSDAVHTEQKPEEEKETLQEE

Measured: binding

RNA polymerase II (Pol2), endogenous, untagged (from UniProt P04050 1-1733; P08518 1-1224; P16370 1-318; P20433 1-221; P20434 1-215; P20435 1-155; P34087 1-171; P20436 1-146; P27999 1-122; P22139 1-70; P38902 1-120; P40422 1-70) (complex)
binds: all assays above
